Data: US20100197657A1, “2-ARYL OR HETEROARYL INDOLE DERIVATIVES” (priority 2007, published 2010)
Some of these results come from one statement about several compounds together.

biological target: T1, human ASIC3 (Homo sapiens, UniProt Q9UHC3); test: In vitro assay for ASIC activity, whole-cell patch clamp, hASIC3 cell line; assay type: cell-based; settings: at 10 uM; percent inhibition vs. baseline current
T1 construct: expressed in transfected cells; host or cells: HEK293
T1 sequence (Q9UHC3 1-531): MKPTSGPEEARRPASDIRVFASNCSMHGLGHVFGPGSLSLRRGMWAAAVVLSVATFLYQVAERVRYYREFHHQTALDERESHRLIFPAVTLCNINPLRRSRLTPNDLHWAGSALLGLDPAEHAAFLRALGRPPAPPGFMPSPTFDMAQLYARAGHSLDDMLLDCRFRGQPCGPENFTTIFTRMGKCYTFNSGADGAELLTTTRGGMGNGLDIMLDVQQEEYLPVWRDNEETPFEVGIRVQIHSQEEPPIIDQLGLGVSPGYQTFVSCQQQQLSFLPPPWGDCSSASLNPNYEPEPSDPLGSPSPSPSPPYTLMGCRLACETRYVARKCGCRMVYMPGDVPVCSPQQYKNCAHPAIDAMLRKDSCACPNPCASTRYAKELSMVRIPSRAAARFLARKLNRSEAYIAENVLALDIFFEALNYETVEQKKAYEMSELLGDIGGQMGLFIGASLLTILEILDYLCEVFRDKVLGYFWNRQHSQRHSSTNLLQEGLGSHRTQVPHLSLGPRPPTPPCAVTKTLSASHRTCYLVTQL
Experimental: Cell Preparation: Human embryonic kidney cells (HEK293) stably expressing the human ASIC ion channel, are grown to 70-90% confluence in T75 cell culture flasks. Cells are lifted by removing the growth media and incubating with 3 ml of warmed (37° C.) 50/50 Trypsin/Dulbecco's Solution (GIBCO, USA) for 4-6 minutes. 7 ml of pH7.4_HBS (see Solutions and Drugs) is then added to block Trypsin activity. The cell suspension is placed into a 10 ml centrifuge tube and centrifuged for 1 minute @ 150×G. After centrifugation, the supernatant is aspirated and the cell pellet is re-suspended in 2-5 ml of pH7.4_HBS for a final cell density of ˜0.6×10^6 cells/ml. For whole-cell patch clamp, approximately 1000 cells are placed in a recording chamber containing standard bath solution for electrophysiological recording.
Solutions and Drugs: The intracellular solution contains (mM): 119 K-gluconate, 15 KCl, 3.2 MgCl2, 5 EGTA, 5 HEPES, 5 K2ATP, pH 7.3. The standard bath solution (pH7.4_HBS) contains (mM): 150 NaCl, 5 KCl, 2 CaCl2, 1 MgCl2, 10 HEPES, 12 Dextrose, pH 7.4. The acid-activation bath solution (pH5.5_MBS) contains (mM): 150 NaCl, 5 KCl, 2 CaCl2, 1 MgCl2, 10 MES, 12 Dextrose, pH 5.5. Test compounds were prepared as 2 or 10 mM stock solutions in DMSO and diluted in either pH7.4_HBS or pH5.5_MBS to final concentration.
Electrophysiological recording: Patch clamp recording pipettes were pulled from borosilicate glass and typically had 2-4 MOhm resistances. Whole cell currents were recorded with a patch clamp amplifier (Multiclamp 700B, Axon Instruments Inc). Holding and test potential was −60 mV. Control and compound solutions perfused the vicinity of the cell with flow controlled by computer-operated solenoid valves. 10-90% solution exchange typically took <20 ms. After establishment of whole cell configuration, cells were perfused with pH7.4_HBS. Baseline ASIC current was determined by application of pH5.5_MBS at two minute intervals. After a stable ASIC current was determined, inhibition of acid evoked current was determined by multiple applications of increasing concentrations (3-fold dilution) of compound. Inhibition of current was expressed as percent inhibition vs. baseline current. A minimum of three independent determinations at each concentration of compound was used for each data point. IC50s were determined using the Hill Equation.

Row | Structure (SMILES) | levels of inhibition of acid-evoked ASIC current
1 | N=C(N)c1ccc2[nH]c(-c3cccc(CO)c3)cc2c1 [EXAMPLE 2] | greater than 20%
2 | N=C(N)c1ccc2[nH]c(-c3cc(Cl)cc(Br)c3)cc2c1 [EXAMPLE 3] | greater than 20%
3 | N=C(N)c1ccc2[nH]c(-c3cc(Br)cc(Br)c3)cc2c1 [EXAMPLE 4] | greater than 20%
4 | N=C(N)c1ccc2[nH]c(-c3cc(F)cc(Cl)c3)cc2c1 [compound 5] | greater than 20%
5 | N=C(N)c1ccc2[nH]c(-c3cc(N)cc(Cl)c3)cc2c1 [compound 6] | greater than 20%
6 | COc1cc(F)cc(-c2cc3cc(C(=N)N)ccc3[nH]2)c1 [compound 7] | greater than 20%
7 | N=C(N)c1ccc2[nH]c(-c3cc(Cl)nc(Cl)c3)cc2c1 [compound 10] | greater than 20%
8 | COc1cc(-c2cc3cc(C(=N)N)ccc3[nH]2)ccn1 [compound 11] | greater than 20%
9 | Cc1cc(Cl)cc(-c2cc3cc(C(=N)N)ccc3[nH]2)c1 [compound 12] | greater than 20%
10 | N=C(N)c1ccc2[nH]c(-c3cc(Cl)cc(-c4ccccc4)c3)cc2c1 [compound 13] | greater than 20%
11 | N=C(N)c1ccc2[nH]c(-c3cc(Cl)cc(NCc4ccccc4)c3)cc2c1 [compound 14] | greater than 20%
12 | N=C(N)c1ccc2[nH]c(-c3cc(Cl)cc(C=O)c3)cc2c1 [compound 15] | greater than 20%
13 | N=C(N)c1ccc2[nH]c(-c3cc(Cl)cc(CN4CCCCC4)c3)cc2c1 [compound 16] | greater than 20%
14 | N=C(N)c1ccc2[nH]c(-c3cc(Cl)cc(CNc4ccccc4)c3)cc2c1 [compound 17] | greater than 20%
15 | N=C(N)c1ccc2cc(-c3ccccc3)[nH]c2c1 [compound 18] | greater than 20%
16 | N=C(N)c1ccc2cc(-c3cc(Cl)cc(Cl)c3)[nH]c2c1 [compound 19] | greater than 20%
17 | N=C(N)c1ccc2cc(-c3cc(Cl)nc(Cl)c3)[nH]c2c1 [compound 20] | greater than 20%
18 | N=C(NCc1ccccc1)c1ccc2[nH]c(-c3cc(Cl)cc(Cl)c3)cc2c1 [compound 22] | greater than 20%
19 | CCCCNC(=N)c1ccc2[nH]c(-c3cc(Cl)cc(Cl)c3)cc2c1 [compound 23] | greater than 20%

Row | Structure (SMILES) | levels of inhibition of acid-evoked ASIC current
20 | CN(C)C(=N)c1ccc2[nH]c(-c3cc(Cl)cc(Cl)c3)cc2c1 [compound 24] | greater than 20%
21 | N=C(c1ccc2[nH]c(-c3cc(Cl)cc(Cl)c3)cc2c1)N1CCCC1 [compound 25] | greater than 20%
22 | N=C(N)c1ccc2[nH]c(-c3ccccc3)c(Cl)c2c1 [compound 29] | greater than 20%
23 | NCc1ccc2[nH]c(-c3ccccc3)c([S+]([O-])c3ccccc3)c2c1 (stereo not drawn) [compound 35] | greater than 20%
24 | C#Cc1c(-c2ccccc2)[nH]c2ccc(CN)cc12 [compound 36] | greater than 20%
25 | COc1c(-c2ccccc2)[nH]c2ccc(CN)cc12 [compound 38] | greater than 20%
26 | NCc1ccc2[nH]c(-c3ccccc3)c(N)c2c1 [compound 40] | greater than 20%
27 | N=C(N)c1ccc2[nH]c(-c3ccccc3)c(F)c2c1 [compound 48] | greater than 20%
28 | NCc1ccc2[nH]c(-c3ccc(CNC4CCCCC4)cc3)cc2c1 [compound 59] | greater than 20%
29 | CC(C)(C)NCc1ccc(-c2cc3cc(CN)ccc3[nH]2)cc1 [compound 60] | greater than 20%
30 | CC(=O)/C=C/c1ccc(-c2cc3cc(CN)ccc3[nH]2)cc1 [compound 75] | greater than 20%
31 | CC(C)NCc1cccc(-c2cc3cc(CN)ccc3[nH]2)c1 [compound 82] | greater than 20%
32 | NCc1ccc2[nH]c(-c3cccc(CN4CCCCC4)c3)cc2c1 [compound 84] | greater than 20%
33 | CC(C)NCc1ccccc1-c1cc2cc(CN)ccc2[nH]1 [compound 98] | greater than 20%
34 | NCc1ccc2[nH]c(-c3ccccc3CN3CCCCC3)cc2c1 [compound 99] | greater than 20%
35 | NCc1ccc2[nH]c(-c3ccncc3)cc2c1 [compound 158] | greater than 20%
36 | COc1cc(-c2cc3cc(CN)ccc3[nH]2)ccn1 [compound 161] | greater than 20%
37 | NCc1ccc2[nH]c(-c3cncc(F)c3)cc2c1 [compound 172] | greater than 20%
38 | COc1cncc(-c2cc3cc(CN)ccc3[nH]2)c1 [compound 174] | greater than 20%

Row | Structure (SMILES) | levels of inhibition of acid-evoked ASIC current
39 | NCc1ccc2[nH]c(-c3ccccn3)cc2c1 [compound 180] | greater than 20%
40 | COc1ccc(-c2cc3cc(CN)ccc3[nH]2)nc1 [compound 181] | greater than 20%
41 | NCc1ccc2[nH]c(-c3n[nH]c4ccc(Br)cc34)cc2c1 [compound 199] | greater than 20%
42 | Cc1ccc2[nH]nc(-c3cc4cc(CN)ccc4[nH]3)c2c1 [compound 200] | greater than 20%
43 | Cc1cc2[nH]nc(-c3cc4cc(CN)ccc4[nH]3)c2cc1C [compound 201] | greater than 20%
44 | Cc1cccc2c(-c3cc4cc(CN)ccc4[nH]3)n[nH]c12 [compound 202] | greater than 20%
45 | NCc1ccc2[nH]c(-c3n[nH]c4ccccc34)cc2c1 [compound 204] | greater than 20%
46 | NCc1ccc2[nH]c(-c3n[nH]c4cccc(F)c34)cc2c1 [compound 205] | greater than 20%
47 | NCc1ccc2[nH]c(-c3nc4ccccc4[nH]3)cc2c1 [compound 206] | greater than 20%
48 | COc1ccc2[nH]cc(-c3cc4cc(CN)ccc4[nH]3)c2c1 [compound 208] | greater than 20%
49 | Cc1ccc2[nH]cc(-c3cc4cc(CN)ccc4[nH]3)c2c1 [compound 209] | greater than 20%
50 | NCc1ccc2[nH]c(-c3cnn4ncccc34)cc2c1 [compound 210] | greater than 20%
51 | NCc1ccc2[nH]c(-c3csc4ccccc34)cc2c1 [compound 212] | greater than 20%
52 | Cc1ccc2sc(-c3cc4cc(CN)ccc4[nH]3)cc2c1 [compound 213] | greater than 20%
53 | NCc1ccc2[nH]c(-c3cc4ccccc4o3)cc2c1 [compound 215] | greater than 20%
54 | NCc1ccc2[nH]c(-c3cccs3)cc2c1 [compound 216] | greater than 20%
55 | Cc1ccc(-c2cc3cc(CN)ccc3[nH]2)s1 [compound 217] | greater than 20%
56 | NCc1ccc2[nH]c(-c3ccc(-c4ccccc4)s3)cc2c1 [compound 218] | greater than 20%
57 | NCc1ccc2[nH]c(-c3ccc([N+](=O)[O-])s3)cc2c1 [compound 219] | greater than 20%
